PubChem BioAssay AID493083 (Broad Institute, 2011)
In all, about 2,400 compounds went through this assay and about 95 (4%) were called active.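 Rule for the calls: active = compounds lowering signal whose fitted AC50 is at most ten times the top tested dose; inconclusive = flat fit with moderate inhibition, or poor curve fit; inactive = the rest.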 Inconclusive means that the source gave no clear call.

Assay: GFP reporter loss versus dox-driven RFP – NIH3T3 R4 cells, cherry-pick, set 3, dose response (AID 493083);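 note: 0% = neutral control wells and -100% = didemnin B positive control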
Details: NIH3T3 R4 HSF-1 GFP reporter, heat shock, 48 h; at 19.5 µM (top of the series)

**Q.** Which activity change, negative = inhibition does the source give for COC(=O)C[C@]1(C(=O)OC)CN(C#N)N(c2ccc(Cl)cc2)C12c1ccccc1-c1ccccc12 here?
**A.** Its activity change, negative = inhibition is inconclusive: -32.8%.

**Q.** With C=C1C(=O)O[C@@H]2C[C@@H](C)[C@@H]3C=CC(=O)[C@@]3(C)[C@@H](OC(=O)CC(=O)O[C@H]3[C@@H]4C(=C)C(=O)O[C@@H]4C[C@@H](C)[C@@H]4C=CC(=O)[C@]43C)[C@H]12 as the molecule, how does the activity change, negative = inhibition read?
**A.** The activity change, negative = inhibition was inconclusive: -54.8%.

**Q.** Which activity change, negative = inhibition does the source give for COc1ccc(Oc2cc(NC(=O)c3nn(C)cc3[N+](=O)[O-])cc([N+](=O)[O-])c2)cc1 here?
**A.** The activity change, negative = inhibition was inconclusive: -73.9%.

**Q.** Which activity change, negative = inhibition does the source give for CC1(C)C[C@H]2C=C(C=O)[C@]3(C=O)C[C@]3(C)[C@H]2C1 here?
**A.** The activity change, negative = inhibition was inconclusive: -71.6%.

**Q.** For CN=C(SCc1cc2c(cc1Cl)OCO2)c1c(O)n(C)c(=O)n(C)c1=O, which activity change, negative = inhibition is on record?
**A.** Its activity change, negative = inhibition is inconclusive: 41.7%.

**Q.** Which activity change, negative = inhibition does the source give for COC(=O)[C@@H]1[C@@H](C(=O)OC)C2(c3ccccc3-c3ccccc32)N(c2ccc(Cl)cc2)N1C#N here?
**A.** Its activity change, negative = inhibition is inconclusive: -83.2%.
